PubChem BioAssay AID1259308 | NCATS | 2017

Aim: 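Candidate targets for better recombinant protein yield in mammalian cells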 (primary screen)
Cell system: human HEK293 embryonic kidney cells stably expressing firefly luciferase (HEK-CMV-Luc2-Hygro)
Knock-down reagent: single siRNA against human genes, 0.8 pmol siRNA per well
Duration: 72 h
Detection: 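Reporter luminescence and viable-cell signal on separate replicate plates, given as percent of non-targeting control and median/MAD z-scores, plus per-cell luciferase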
Scale: total luciferase, z-score and total luciferase, % of control: higher = more reporter protein produced
Call rule: 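An siRNA counts as active if its total luciferase robust z-score exceeds 3; genes with two or more such siRNAs out of three were retested with fresh siRNAs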
Calls: active = raised luciferase; inactive = no rise
The deposit covers about 59,000 reagents; this is a part drawn at random. About 1,510 of all reagents (2.6%) count as active. 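Calls use total luciferase alone and ignore viability, so some active siRNAs may act by altering cell number.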 A number with no mark means an inactive call. The numbers tell different reagents against one gene apart. Further read-outs or replicates are left out here.

Gene | reagent | total luciferase, z-score | total luciferase, % of control
SERPINE3 (serpin family E member 3) | 1 | 1.54 | 113
SERPINE3 (serpin family E member 3) | 2 | 2.83 | 138
SERPINE3 (serpin family E member 3) | 3 | 1.95 | 121
MBD4 (methyl-CpG binding domain 4, DNA glycosylase) | 1 | -0.909 | 63.8
MBD4 (methyl-CpG binding domain 4, DNA glycosylase) | 2 | -0.0876 | 80.1
MBD4 (methyl-CpG binding domain 4, DNA glycosylase) | 3 | 0.838 | 98.6
TBX22 (T-box transcription factor 22) | 1 | -2.76 | 26.9
TBX22 (T-box transcription factor 22) | 2 | 0.805 | 97.9
TBX22 (T-box transcription factor 22) | 3 | 1.49 | 112
FNBP1 (formin binding protein 1) | 1 | -2.35 | 35.2
FNBP1 (formin binding protein 1) | 2 | -0.105 | 79.8
FNBP1 (formin binding protein 1) | 3 | -0.0458 | 81
ZNF155 (zinc finger protein 155) | 1 | -0.645 | 69.1
ZNF155 (zinc finger protein 155) | 2 | 0.769 | 97.2
ZNF155 (zinc finger protein 155) | 3 | 1.99 | 121
FOXD4L6 (forkhead box D4 like 6) | 1 | 2.4 | 130
FOXD4L6 (forkhead box D4 like 6) | 2 | 0.996 | 102
FOXD4L6 (forkhead box D4 like 6) | 3 | 2.46 | 131
NUMB (NUMB endocytic adaptor protein) | 1 | -0.18 | 78.3
NUMB (NUMB endocytic adaptor protein) | 2 | -0.361 | 74.7
NUMB (NUMB endocytic adaptor protein) | 3 | 0.406 | 90
CNGA2 (cyclic nucleotide gated channel subunit alpha 2) | 1 | -2.88 | 24.6
CNGA2 (cyclic nucleotide gated channel subunit alpha 2) | 2 | 0.111 | 84.1
CNGA2 (cyclic nucleotide gated channel subunit alpha 2) | 3 | -0.23 | 77.3
HOXC4 (homeobox C4) | 1 | 0.111 | 84.1
HOXC4 (homeobox C4) | 2 | -0.303 | 75.9
HOXC4 (homeobox C4) | 3 | -1.38 | 54.4
ABCA6 (ATP binding cassette subfamily A member 6) | 1 | -0.768 | 66.6
ABCA6 (ATP binding cassette subfamily A member 6) | 2 | 0.415 | 90.1
ABCA6 (ATP binding cassette subfamily A member 6) | 3 | 0.536 | 92.5

Targets above whose gene name begins with S or s (3):
Gene | reagent | total luciferase, z-score | total luciferase, % of control
SERPINE3 (serpin family E member 3) | 1 | 1.54 | 113
SERPINE3 (serpin family E member 3) | 2 | 2.83 | 138
SERPINE3 (serpin family E member 3) | 3 | 1.95 | 121

The list goes on.
Gene | reagent | total luciferase, z-score | total luciferase, % of control
CBLN2 (cerebellin 2 precursor) | 1 | -0.989 | 62.2
CBLN2 (cerebellin 2 precursor) | 2 | 0.776 | 97.3
CBLN2 (cerebellin 2 precursor) | 3 | -0.311 | 75.7
LANCL2 (LanC like glutathione S-transferase 2) | 1 | 0.952 | 101
LANCL2 (LanC like glutathione S-transferase 2) | 2 | 1.29 | 107
LANCL2 (LanC like glutathione S-transferase 2) | 3 | 0.498 | 91.8
FBXW5 (F-box and WD repeat domain containing 5) | 1 | 0.409 | 90
FBXW5 (F-box and WD repeat domain containing 5) | 2 | 0.34 | 88.7
FBXW5 (F-box and WD repeat domain containing 5) | 3 | 1.05 | 103
GGN (gametogenetin) | 1 | -0.652 | 68.9
GGN (gametogenetin) | 2 | 2.42 | 130
GGN (gametogenetin) | 3 | 2.32 | 128
DNAJA3 (DnaJ heat shock protein family (Hsp40) member A3) | 1 | 0.191 | 85.7
DNAJA3 (DnaJ heat shock protein family (Hsp40) member A3) | 2 | 0.734 | 96.5
DNAJA3 (DnaJ heat shock protein family (Hsp40) member A3) | 3 | -1.05 | 61.1
ZNF341 (zinc finger protein 341) | 1 | 0.707 | 95.9
ZNF341 (zinc finger protein 341) | 2 | 0.306 | 88
ZNF341 (zinc finger protein 341) | 3 | -0.34 | 75.1
SMAD9 (SMAD family member 9) | 1 | -1.3 | 56
SMAD9 (SMAD family member 9) | 2 | -0.992 | 62.2
SMAD9 (SMAD family member 9) | 3 | -1.15 | 59.1
GABRA5 (gamma-aminobutyric acid type A receptor subunit alpha5) | 1 | -0.489 | 72.2
GABRA5 (gamma-aminobutyric acid type A receptor subunit alpha5) | 2 | -0.0688 | 80.5
GABRA5 (gamma-aminobutyric acid type A receptor subunit alpha5) | 3 | -1.05 | 61.1
ST8SIA1 (ST8 alpha-N-acetyl-neuraminide alpha-2,8-sialyltransferase 1) | 1 | -1.85 | 45
ST8SIA1 (ST8 alpha-N-acetyl-neuraminide alpha-2,8-sialyltransferase 1) | 2 | -0.537 | 71.2
ST8SIA1 (ST8 alpha-N-acetyl-neuraminide alpha-2,8-sialyltransferase 1) | 3 | -0.781 | 66.3
